Reference: PubChem BioAssay AID296 (DTP/NCI, 2004)
The list does not hold the whole screen: it is rich in T/C values a quarter to a half above the control, in often repeated tests (any T/C) and in doses without a T/C. Further doses and runs are listed elsewhere. T/C: endpoint of the treated group in % of that of the vehicle group. Schedules are NCI's codes, read here as Q, the interval in days (D) or hours (H), X, the number of doses. Some structures stand for samples that the source files as different forms (salt, stereo form or complex); doses refer to the form tested. Some T/C values carry the count of animals alive at the toxicity check (mostly the fifth day); where none is given, no animal had died by that day. Some T/C values are negative: the treated tumours shrank. Some entries were tested several times; their values stand side by side, smallest first. Some entries give survivors of the animals treated and no T/C: the source holds a T/C of zero for them, seemingly a mark for toxic or unscored doses. Survivors were counted at the toxicity check, usually on the fifth day, unless a day is given; later deaths do not show.

System: MX-1 breast xenograft, nude mice, tumor weight T/C
Experiment: NCI In Vivo Anticancer Drug Screen. Data for tumor model Human Mammary Carcinoma MX-1 Xenograft (intrarenal inoculation) in NU/NU Swiss (nude) mice
Settings: T/C endpoint: mean tumor weight change, higher T/C = larger tumour; for T/C: evaluated on day 11
Procedure, shortened: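 Compound dosed to mice with transplantable tumor; vehicle group as control. Endpoint survival or tumour size, reported as T/C.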

[1] = dose: 100.0 mg/kg/injection, schedule: Q01DX010 (sc), vehicle: saline with Tween-80
[2] = dose: 200.0 mg/kg/injection, schedule: Q01DX010 (sc), vehicle: saline with Tween-80
[3] = dose: 400.0 mg/kg/injection, schedule: Q01DX010 (sc), vehicle: saline with Tween-80
[4] = dose: 50.0 mg/kg/injection, schedule: Q01DX010 (sc), vehicle: saline with Tween-80
[5] = dose: 200.0 mg/kg/injection, schedule: Q01DX010 (sc), vehicle: water

Compound: O=C1C(NCCO)=C(N2CC2)C(=O)C(NCCO)=C1N1CC1
- survivor count (dose: 6.0 mg/kg/injection, schedule: Q04DX003 (sc), vehicle: saline): 1 of 6 on day 11
- survivor count (dose: 8.0 mg/kg/injection, schedule: Q04DX003 (sc), vehicle: saline): 0 of 6 on day 11

Compound: CCNC(=O)OCc1c(COC(=O)NCC)c(-c2ccc(Cl)c(Cl)c2)n2c1CCC2
- survivor count [1]: 1 of 3 on day 11
- survivor count [2]: 1 of 3 on day 11
- survivor count [3]: 0 of 3 on day 11

Compound: ClCC[N+]12CC[N+](CCCl)(CC1)C2
- survivor count (dose: 25.0 mg/kg/injection, schedule: Q01DX010 (sc), vehicle: saline with Tween-80): 1 of 3 on day 11
- T/C [4]: 20, 81 [2 of 2 alive on day 11], 84 % of control
- survivor count [4]: 0 of 3 on day 11
- survivor count (dose: 50.0 mg/kg/injection, schedule: Q01DX010 (sc), vehicle: suspension in saline): 0 of 3 on day 11
- T/C [1]: -3 [2 of 2 alive on day 11], 37, 58 % of control [2 of 2 alive on day 11]
- survivor count [1]: 0 of 3 on day 11
- survivor count (dose: 100.0 mg/kg/injection, schedule: Q01DX010 (sc), vehicle: suspension in saline): 0 of 3 on day 11
- T/C [2]: -75 [2 of 3 alive on day 11], 3, 13 % of control [2 of 2 alive on day 11]
- survivor count [2]: 0 of 3 on day 11
- survivor count (dose: 200.0 mg/kg/injection, schedule: Q01DX010 (sc), vehicle: suspension in saline): 0 of 3 on day 11
- T/C (dose: 300.0 mg/kg/injection, schedule: Q04DX003 (sc), vehicle: water): 18 [5 of 6 alive on day 11], 31, 55 % of control
- survivor count [3]: 0 of 3 on day 11
- survivor count (dose: 400.0 mg/kg/injection, schedule: Q01DX010 (sc), vehicle: suspension in saline): 0 of 3 on day 11
- survivor count (dose: 600.0 mg/kg/injection, schedule: Q04DX003 (sc), vehicle: water): 3 of 6 on day 11 and 3 of 5 on day 11
- survivor count (dose: 1200.0 mg/kg/injection, schedule: Q04DX003 (sc), vehicle: water): 0 of 6 on day 11
- survivor count (dose: 2400.0 mg/kg/injection, schedule: Q04DX003 (sc), vehicle: water): 0 of 6 on day 11

Compound: CCC1=C[C@H]2CN(CCc3c([nH]c4ccccc34)[C@@](C(=O)OC)(c3cc4c(cc3OC)N(C)[C@H]3[C@@](O)(C(=O)OC)[C@H](OC(C)=O)[C@]5(CC)C=CCN6CC[C@]43[C@@H]65)C2)C1
- survivor count (dose: 24.0 mg/kg/injection, schedule: Q04DX003 (sc), vehicle: water): 3 of 6 on day 11

Compound: CC(=O)Nc1ccc(O)c(O)c1
- survivor count (dose: 2400.0 mg/kg/injection, schedule: Q04DX003 (sc), vehicle: saline with Tween-80): 3 of 6 on day 11

Compound: COc1cccc2c1C(=O)c1c(O)c3c(c(O)c1C2=O)CC(O)(C(=O)CO)CC3OC1CC(N)C(O)C(C)O1 (stereo not given)
- survivor count (dose: 100.0 mg/kg/injection, schedule: Q01DX010 (sc), vehicle: saline): 1 of 6 on day 11
- survivor count (dose: 200.0 mg/kg/injection, schedule: Q01DX010 (sc), vehicle: saline): 0 of 6 on day 11

Compound: [I][Hg][CH2]C1OCCOC1[CH2][Hg][I] (stereo not given)
- T/C (dose: 300.0 mg/kg/injection, schedule: Q04DX003 (sc), vehicle: Klucel (hydroxypropylcellulose) (HPC)): 129 % of control
- T/C (dose: 600.0 mg/kg/injection, schedule: Q04DX003 (sc), vehicle: Klucel (hydroxypropylcellulose) (HPC)): 142 % of control

Compound: O=C(O)c1c2c(nc3ccccc13)Cc1ccccc1-2
- T/C [5]: 144 % of control [2 of 3 alive on day 11]
- survivor count [5]: 1 of 2 on day 11
- survivor count (dose: 400.0 mg/kg/injection, schedule: Q01DX010 (sc), vehicle: water): 0 of 2 on day 11 and 1 of 3 on day 11

Compound: CCOC(OCC)C(=O)OCC(=O)[C@]1(O)Cc2c(O)c3c(c(O)c2[C@@H](OC2CC(N)C(O)C(C)O2)C1)C(=O)c1c(OC)cccc1C3=O (stereo not given in full)
- survivor count (dose: 8.0 mg/kg/injection, schedule: Q01DX010 (sc), vehicle: water): 0 of 3 on day 11 and 1 of 3 on day 11

Compound: Cc1ccccc1N(CC1CO1)CC1CO1 (stereo not given)
- survivor count (dose: 1600.0 mg/kg/injection, schedule: Q01DX010 (sc), vehicle: suspension in saline): 0 of 3 on day 11

Compound: C[C@@]12C(=O)OC(=O)[C@]1(C)[C@H]1CC[C@@H]2O1
- survivor count (dose: 5.0 mg/kg/injection, schedule: Q04DX003 (sc), vehicle: Klucel (hydroxypropylcellulose) (HPC)): 1 of 6 on day 11
- survivor count (dose: 10.0 mg/kg/injection, schedule: Q04DX003 (sc), vehicle: Klucel (hydroxypropylcellulose) (HPC)): 3 of 6 on day 11

Compound: CC[C@]1(O)C[C@H]2CN(CCc3c([nH]c4ccccc34)[C@@](C(=O)OC)(c3cc4c(cc3OC)N(C=O)[C@H]3[C@@](O)(C(=O)OC)[C@H](OC(C)=O)[C@]5(CC)C=CCN6CC[C@]43[C@@H]65)C2)C1
- survivor count (dose: 1.0 mg/kg/injection, schedule: Q01DX010 (sc), vehicle: saline): 1 of 3 on day 11

Compound: ClCCCN1CCN(CCCl)CC1
- survivor count (dose: 15.0 mg/kg/injection, schedule: Q04DX003 (sc), vehicle: saline): 2 of 6 on day 11
- survivor count (dose: 30.0 mg/kg/injection, schedule: Q04DX003 (sc), vehicle: saline): 0 of 6 on day 11 and 1 of 6 on day 11
- survivor count (dose: 37.5 mg/kg/injection, schedule: Q04DX003 (sc), vehicle: saline): 0 of 6 on day 11
- survivor count (dose: 75.0 mg/kg/injection, schedule: Q04DX003 (sc), vehicle: saline): 0 of 6 on day 11
- survivor count (dose: 150.0 mg/kg/injection, schedule: Q04DX003 (sc), vehicle: saline): 0 of 6 on day 11
- survivor count (dose: 300.0 mg/kg/injection, schedule: Q04DX003 (sc), vehicle: saline): 0 of 6 on day 11

Compound: CC[N+](CC)(CC)CC
- T/C (dose: 3.0 mg/kg/injection, schedule: Q01DX010 (sc), vehicle: saline with Tween-80): 140 % of control
- survivor count (dose: 24.0 mg/kg/injection, schedule: Q01DX010 (sc), vehicle: saline with Tween-80): 0 of 3 on day 11

Compound: C/C(=N\N=C(/[Se])N1CC2CCC(CC2)C1)c1ccccn1
- survivor count (dose: 100.0 mg/kg/injection, schedule: Q04DX003 (sc), vehicle: Klucel (hydroxypropylcellulose) (HPC)): 2 of 6 on day 11
- survivor count (dose: 200.0 mg/kg/injection, schedule: Q04DX003 (sc), vehicle: Klucel (hydroxypropylcellulose) (HPC)): 1 of 6 on day 11

Compound: CS(=O)(=O)Nc1ccc(C(=O)CCN2CCCCCC2)cc1
- survivor count (dose: 600.0 mg/kg/injection, schedule: Q04DX003 (sc), vehicle: saline with Tween-80): 2 of 6 on day 11
- survivor count (dose: 1200.0 mg/kg/injection, schedule: Q04DX003 (sc), vehicle: saline with Tween-80): 0 of 6 on day 11

Compound: OCCN1CCN(CC/C=C2/c3ccccc3Sc3ccc(Cl)cc32)CC1
- survivor count (dose: 200.0 mg/kg/injection, schedule: Q04DX003 (sc), vehicle: saline): 3 of 6 on day 11
- survivor count (dose: 400.0 mg/kg/injection, schedule: Q04DX003 (sc), vehicle: saline): 0 of 6 on day 11

Compound: [Cl][Pt+2][Cl].[NH-]CC1(C[NH-])CCC1
- survivor count (dose: 25.0 mg/kg/injection, schedule: Q04DX003 (sc), vehicle: saline): 3 of 6 on day 11
- survivor count (dose: 50.0 mg/kg/injection, schedule: Q04DX003 (sc), vehicle: saline): 0 of 6 on day 11
- survivor count (dose: 50.0 mg/kg/injection, schedule: Q04DX003 (sc), vehicle: suspension in saline): 0 of 6 on day 11
- survivor count (dose: 100.0 mg/kg/injection, schedule: Q04DX003 (sc), vehicle: suspension in saline): 0 of 6 on day 11
- survivor count (dose: 200.0 mg/kg/injection, schedule: Q04DX003 (sc), vehicle: suspension in saline): 0 of 6 on day 11
- survivor count (dose: 400.0 mg/kg/injection, schedule: Q04DX003 (sc), vehicle: suspension in saline): 0 of 6 on day 11
